Results deposited as PubChem BioAssay AID1224829 (NIAID, 2016).
The deposit covers about 3,800 reagents; shown is a random part of them. 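Calls cover raised and lowered translocation; gene median uses one vendor's three siRNAs; qiagen siRNAs acted more weakly than ambion siRNAs.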 Entries without a mark were called inactive. Reagents against one gene are numbered here. Not all columns of the deposit are shown.

Test: 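Secondary check of hits that alter LPS-induced p65 translocation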 (follow-up of hits)
Cells: mouse RAW264.7 G9 macrophage reporter cells
Reagents: single siRNA against mouse genes, 100 nM
Time to read-out: 2 days of siRNA knock-down, then 40 min of LPS before fixing
Conditions: LPS (Salmonella minnesota R595) at 10 ng/ml
Measurement: 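High-content images after 40 min LPS exposure; GFP-p65 nucleus to surrounding ring signal ratio, normalised to plate median and non-targeting control wells, expressed as z-score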
Direction: p65 translocation z-score: higher = more nuclear NF-kappaB p65 after LPS
Call rule: 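Active means the replicate-mean z-score lies beyond plus or minus 2, in either direction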
Calls: active = changed p65 translocation (either direction); inactive = no clear change

Cyp4a10 (GeneID 13117) #1, siRNA vendor or control pool ambion single siRNA: p65 translocation z-score, replicate mean = 0.0661; p65 translocation z-score, replicate 1 = -1.22
Cyp4a10 (GeneID 13117) #2, siRNA vendor or control pool ambion single siRNA: p65 translocation z-score, replicate mean = -2.01 (active); p65 translocation z-score, replicate 1 = -2.01
Cyp4a10 (GeneID 13117) #3, siRNA vendor or control pool ambion single siRNA: p65 translocation z-score, replicate mean = -3.69 (active); p65 translocation z-score, replicate 1 = -3.69
Cyp4a10 (GeneID 13117) #4, siRNA vendor or control pool qiagen single siRNA: p65 translocation z-score, replicate mean = 1.26; p65 translocation z-score, replicate 1 = 1.11
Cyp4a10 (GeneID 13117) #5, siRNA vendor or control pool qiagen single siRNA: p65 translocation z-score, replicate mean = 3.28 (active); p65 translocation z-score, replicate 1 = 3.62
Cyp4a10 (GeneID 13117) #6, siRNA vendor or control pool qiagen single siRNA: p65 translocation z-score, replicate mean = -5.45 (active); p65 translocation z-score, replicate 1 = -5.45
Runx2 (GeneID 12393) #1, siRNA vendor or control pool ambion single siRNA: p65 translocation z-score, replicate mean = -0.722; p65 translocation z-score, replicate 1 = 0.146
Runx2 (GeneID 12393) #2, siRNA vendor or control pool ambion single siRNA: p65 translocation z-score, replicate mean = -1.59; p65 translocation z-score, replicate 1 = -0.395
Runx2 (GeneID 12393) #3, siRNA vendor or control pool ambion single siRNA: p65 translocation z-score, replicate mean = -2.65 (active); p65 translocation z-score, replicate 1 = -3.47
Runx2 (GeneID 12393) #4, siRNA vendor or control pool qiagen single siRNA: p65 translocation z-score, replicate mean = -0.326; p65 translocation z-score, replicate 1 = -1.15
Runx2 (GeneID 12393) #5, siRNA vendor or control pool qiagen single siRNA: p65 translocation z-score, replicate mean = -0.214; p65 translocation z-score, replicate 1 = -0.62
Runx2 (GeneID 12393) #6, siRNA vendor or control pool qiagen single siRNA: p65 translocation z-score, replicate mean = -0.297; p65 translocation z-score, replicate 1 = -0.618
Mtbp (GeneID 105837) #1, siRNA vendor or control pool ambion single siRNA: p65 translocation z-score, replicate mean = -0.294; p65 translocation z-score, replicate 1 = -0.165
Mtbp (GeneID 105837) #2, siRNA vendor or control pool ambion single siRNA: p65 translocation z-score, replicate mean = 0.86; p65 translocation z-score, replicate 1 = 1.54
Mtbp (GeneID 105837) #3, siRNA vendor or control pool ambion single siRNA: p65 translocation z-score, replicate mean = -1.49; p65 translocation z-score, replicate 1 = -1.73
Mtbp (GeneID 105837) #4, siRNA vendor or control pool qiagen single siRNA: p65 translocation z-score, replicate mean = 1.44; p65 translocation z-score, replicate 1 = 1.51
Mtbp (GeneID 105837) #5, siRNA vendor or control pool qiagen single siRNA: p65 translocation z-score, replicate mean = 2.85 (active); p65 translocation z-score, replicate 1 = 1.35
Mtbp (GeneID 105837) #6, siRNA vendor or control pool qiagen single siRNA: p65 translocation z-score, replicate mean = -1.3; p65 translocation z-score, replicate 1 = 0.201
Zeb2 (GeneID 24136) #1, siRNA vendor or control pool ambion single siRNA: p65 translocation z-score, replicate mean = -2.09 (active); p65 translocation z-score, replicate 1 = -2
Zeb2 (GeneID 24136) #2, siRNA vendor or control pool ambion single siRNA: p65 translocation z-score, replicate mean = -1.27; p65 translocation z-score, replicate 1 = -0.59
Zeb2 (GeneID 24136) #3, siRNA vendor or control pool ambion single siRNA: p65 translocation z-score, replicate mean = -2.92 (active); p65 translocation z-score, replicate 1 = -2.41
Zeb2 (GeneID 24136) #4, siRNA vendor or control pool qiagen single siRNA: p65 translocation z-score, replicate mean = -1.5; p65 translocation z-score, replicate 1 = -1.49
Zeb2 (GeneID 24136) #5, siRNA vendor or control pool qiagen single siRNA: p65 translocation z-score, replicate mean = -2.18 (active); p65 translocation z-score, replicate 1 = -1.18
Zeb2 (GeneID 24136) #6, siRNA vendor or control pool qiagen single siRNA: p65 translocation z-score, replicate mean = -3.77 (active); p65 translocation z-score, replicate 1 = -2.86
BC051665 (GeneID 218275) #1, siRNA vendor or control pool ambion single siRNA: p65 translocation z-score, replicate mean = 1.35; p65 translocation z-score, replicate 1 = 0.98
BC051665 (GeneID 218275) #2, siRNA vendor or control pool ambion single siRNA: p65 translocation z-score, replicate mean = 0.385; p65 translocation z-score, replicate 1 = -0.127
BC051665 (GeneID 218275) #3, siRNA vendor or control pool ambion single siRNA: p65 translocation z-score, replicate mean = -4.69 (active); p65 translocation z-score, replicate 1 = -5.28
BC051665 (GeneID 218275) #4, siRNA vendor or control pool qiagen single siRNA: p65 translocation z-score, replicate mean = 0.0135; p65 translocation z-score, replicate 1 = 0.255
BC051665 (GeneID 218275) #5, siRNA vendor or control pool qiagen single siRNA: p65 translocation z-score, replicate mean = 1.66; p65 translocation z-score, replicate 1 = 0.727
BC051665 (GeneID 218275) #6, siRNA vendor or control pool qiagen single siRNA: p65 translocation z-score, replicate mean = -1.21; p65 translocation z-score, replicate 1 = -0.966

3 neighbouring entries already listed:
Mtbp (GeneID 105837) #5, siRNA vendor or control pool qiagen single siRNA: p65 translocation z-score, replicate mean = 2.85 (active); p65 translocation z-score, replicate 1 = 1.35
Mtbp (GeneID 105837) #6, siRNA vendor or control pool qiagen single siRNA: p65 translocation z-score, replicate mean = -1.3; p65 translocation z-score, replicate 1 = 0.201
Zeb2 (GeneID 24136) #1, siRNA vendor or control pool ambion single siRNA: p65 translocation z-score, replicate mean = -2.09 (active); p65 translocation z-score, replicate 1 = -2
